This note sets out measurements from publication PMC6399282.

By UniProt entry, the sequences of proteins in these tests, tags left out.
UniProt P23443: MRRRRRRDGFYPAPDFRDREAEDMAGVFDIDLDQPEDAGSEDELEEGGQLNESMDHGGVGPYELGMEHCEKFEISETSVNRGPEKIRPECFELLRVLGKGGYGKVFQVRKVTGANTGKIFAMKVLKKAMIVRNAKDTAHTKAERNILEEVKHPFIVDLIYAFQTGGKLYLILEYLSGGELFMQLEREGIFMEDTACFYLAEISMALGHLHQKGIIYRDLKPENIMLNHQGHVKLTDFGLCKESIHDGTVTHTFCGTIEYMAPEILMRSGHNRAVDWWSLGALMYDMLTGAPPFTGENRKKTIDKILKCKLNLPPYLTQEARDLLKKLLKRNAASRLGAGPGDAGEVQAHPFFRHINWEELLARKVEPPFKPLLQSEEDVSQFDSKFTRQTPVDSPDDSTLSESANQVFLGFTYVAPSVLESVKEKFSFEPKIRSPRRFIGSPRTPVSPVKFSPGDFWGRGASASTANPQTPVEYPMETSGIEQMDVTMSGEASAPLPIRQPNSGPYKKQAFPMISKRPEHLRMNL
UniProt Q8N122: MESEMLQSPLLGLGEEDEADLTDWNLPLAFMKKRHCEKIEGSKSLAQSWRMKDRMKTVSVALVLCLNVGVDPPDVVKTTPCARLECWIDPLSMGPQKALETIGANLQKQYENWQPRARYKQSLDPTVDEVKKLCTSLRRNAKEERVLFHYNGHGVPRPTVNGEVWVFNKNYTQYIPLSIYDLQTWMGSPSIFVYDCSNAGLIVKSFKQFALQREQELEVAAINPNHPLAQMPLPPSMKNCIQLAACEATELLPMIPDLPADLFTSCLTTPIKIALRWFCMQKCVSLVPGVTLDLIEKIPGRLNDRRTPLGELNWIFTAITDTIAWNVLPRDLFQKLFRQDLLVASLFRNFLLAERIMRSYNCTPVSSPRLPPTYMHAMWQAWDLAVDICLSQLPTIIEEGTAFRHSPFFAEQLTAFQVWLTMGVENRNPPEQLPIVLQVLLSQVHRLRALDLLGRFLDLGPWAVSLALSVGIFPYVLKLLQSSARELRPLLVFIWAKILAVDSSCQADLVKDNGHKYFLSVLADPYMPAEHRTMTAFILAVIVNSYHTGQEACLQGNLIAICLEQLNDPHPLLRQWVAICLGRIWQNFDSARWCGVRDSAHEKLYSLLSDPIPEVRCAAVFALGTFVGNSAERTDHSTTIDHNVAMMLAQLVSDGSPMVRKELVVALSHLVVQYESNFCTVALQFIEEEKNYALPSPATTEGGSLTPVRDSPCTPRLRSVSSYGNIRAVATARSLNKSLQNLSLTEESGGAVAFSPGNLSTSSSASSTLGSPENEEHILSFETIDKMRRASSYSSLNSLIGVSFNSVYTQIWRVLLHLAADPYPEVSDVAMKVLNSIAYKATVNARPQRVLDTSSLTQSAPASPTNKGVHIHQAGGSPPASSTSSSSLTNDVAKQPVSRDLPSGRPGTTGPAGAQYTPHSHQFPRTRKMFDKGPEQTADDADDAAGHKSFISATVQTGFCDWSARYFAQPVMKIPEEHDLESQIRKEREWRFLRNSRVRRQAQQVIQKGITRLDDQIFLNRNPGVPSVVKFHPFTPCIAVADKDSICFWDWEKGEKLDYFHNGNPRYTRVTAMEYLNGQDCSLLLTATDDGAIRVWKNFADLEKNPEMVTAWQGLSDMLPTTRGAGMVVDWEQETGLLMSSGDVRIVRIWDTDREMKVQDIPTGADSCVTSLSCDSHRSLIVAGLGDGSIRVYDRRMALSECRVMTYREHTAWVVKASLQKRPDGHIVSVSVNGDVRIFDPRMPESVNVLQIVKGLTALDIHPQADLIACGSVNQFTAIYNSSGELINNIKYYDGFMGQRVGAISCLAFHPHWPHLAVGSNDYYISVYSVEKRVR

These are yes or no findings as the source states them, for the method shown. Binding seen in cells or lysates may run through a third protein. Some results given as binding are weak or reduced against the parent protein; the word gives no strength.

In assay [1] the target is EGFP-S6K1 (containing an N-terminus His tag) (UniProt P23443). Nature of the assay: FRET or BRET; FRET-FLIM in live HEK293 cells co-expressing an EGFP-tagged donor and an mCherry-tagged acceptor; multiphoton (910 nm) or one-photon (488 nm) excitation; donor fluorescence lifetime read.
Assay [2] has the same target. As to the kind of experiment: pull-down; His-tagged EGFP-S6K1 co-expressed with partners in HEK293F cells for 72 h; lysate (50 mM HEPES pH 7.4, 150 mM NaCl, 3 mM DTT, 0.4% CHAPS) loaded on Ni-NTA resin at 4 °C, washed with 20 mM imidazole, eluted with 500 mM imidazole; Western blot. (Immunoblotting shows a protein as a band on a membrane.)
Assay [3] deals with S6K1-mCherry (UniProt P23443). As to the kind of experiment: FRET or BRET; FRET-FLIM in live HEK293 cells co-expressing an EGFP-tagged donor and an mCherry-tagged acceptor; multiphoton (910 nm) or one-photon (488 nm) excitation; donor fluorescence lifetime read. For orientation: In BRET a luciferase serves as donor, and the signal depends on an acceptor being close.

As to “mCherry-raptor (from UniProt Q8N122 1-1335)”, the binding result in assay [1] and in assay [2] was “binds” in each case. With mDsRed-Rheb (from UniProt Q15382 1-184), the binding entry in assay [2] was “no binding”.

Turning to EGFP-Rheb (from UniProt Q15382 1-184), in assay [3], the binding entry is given as “no binding”.
